{
  "source": "paper PMC12382614",
  "about": "“(Oxidopyridyl)Porphyrins of Different Lipophilicity: Photophysical Properties, ROS Production and Phototoxicity on Melanoma Cells Under CoCl2-Induced Hypoxia” (Antioxidants, 2025)",
  "test_in_all_cases": "Cellular uptake kinetics, fluorescence of cell lysates",
  "assay_type_in_all_cases": "cell-based, human",
  "settings_in_all_cases": "37 °C, incubation up to 24 h",
  "key": {"[1]": {"system": "A375"}, "[2]": {"system": "HDF"}, "[3]": {"system": "MeWo"}},
  "note": "Some results come without the dose or concentration used.",
  "data": [
    {"smiles": "CCCCCCCCCC(=O)Nc1ccc(-c2c3nc(c(-c4ccc[n+]([O-])c4)c4ccc([nH]4)c(-c4ccc[n+]([O-])c4)c4nc(c(-c5ccc[n+]([O-])c5)c5ccc2[nH]5)C=C4)C=C3)cc1", "note": "[TOPyP3-C9H19, 5-(4-Decanamidophenyl)-10,15,20-tris(1-oxido-3-pyridyl)porphyrin]", "values": [
      {"measurement": "time within which the majority of the porphyrin is internalised", "setting": "[1]", "result": "≤ 6", "unit": "h"},
      {"measurement": "time within which the majority of the porphyrin is internalised", "setting": "[2]", "result": "≤ 6", "unit": "h"},
      {"measurement": "time within which the majority of the porphyrin is internalised", "setting": "[3]", "result": "≤ 12", "unit": "h"}
    ]},
    {"smiles": "CCCCCCCCCCCCCC(=O)Nc1ccc(-c2c3nc(c(-c4ccc[n+]([O-])c4)c4ccc([nH]4)c(-c4ccc[n+]([O-])c4)c4nc(c(-c5ccc[n+]([O-])c5)c5ccc2[nH]5)C=C4)C=C3)cc1", "note": "[TOPyP3-C13H27, 5-(4-Tetradecanamidophenyl)-10,15,20-tris(1-oxido-3-pyridyl)porphyrin]", "values": [
      {"measurement": "time within which the majority of the porphyrin is internalised", "setting": "[1]", "result": "≤ 6", "unit": "h"},
      {"measurement": "time within which the majority of the porphyrin is internalised", "setting": "[2]", "result": "≤ 6", "unit": "h"},
      {"measurement": "time within which the majority of the porphyrin is internalised", "setting": "[3]", "result": "≤ 12", "unit": "h"}
    ]}
  ]
}
